Source: PubChem BioAssay AID1259354 (Paczesny and Yang Labs, IUPUI and University of Michigan, 2018)
Hit rate of the full screen: of about 78,000 compounds, about 1,800 (2.3%) were called active. Inconclusive results, whose numbers are uncertain, are shown with a selection of clear calls. Cut-off read from the data, not from the text of the source: active = inhibition above about 30%; inconclusive = mostly about 10% to 28%; inactive = weaker than that.

Chains of the proteins cited; added tags and fusions are not shown. Lines headed by an entry give the natural chain unless they say otherwise; changes in a name come on top.
UniProt Q01638: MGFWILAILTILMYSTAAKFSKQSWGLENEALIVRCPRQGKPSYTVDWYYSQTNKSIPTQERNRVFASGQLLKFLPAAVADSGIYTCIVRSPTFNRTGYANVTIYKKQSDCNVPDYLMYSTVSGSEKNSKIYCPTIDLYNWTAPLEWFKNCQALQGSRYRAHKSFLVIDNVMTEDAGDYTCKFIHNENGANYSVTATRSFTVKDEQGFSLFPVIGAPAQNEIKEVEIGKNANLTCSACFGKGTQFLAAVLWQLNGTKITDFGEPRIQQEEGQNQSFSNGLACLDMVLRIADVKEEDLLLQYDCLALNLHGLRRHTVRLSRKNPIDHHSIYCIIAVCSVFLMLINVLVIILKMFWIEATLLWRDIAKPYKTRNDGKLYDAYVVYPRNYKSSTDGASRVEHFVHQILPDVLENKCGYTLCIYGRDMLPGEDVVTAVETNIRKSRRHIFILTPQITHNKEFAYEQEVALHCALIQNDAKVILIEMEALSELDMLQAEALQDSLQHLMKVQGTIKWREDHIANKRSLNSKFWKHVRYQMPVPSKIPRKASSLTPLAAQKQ

These molecules were tested against Interleukin-1 receptor-like 1 (Homo sapiens) (UniProt Q01638) (assay: blocks human ST2 binding to IL-33, primary screen, biochemical, AlphaLISA (AID 1259354)). Conditions: AlphaLISA ST2-Fc/biotin-IL-33 interaction, 1 h; at 17 µM, stronger effect = higher value.

SMILES | inhibition
Cc1cn(CC(=O)c2ccccc2)c2ccccc12 | inconclusive: 17%
Cc1ccccc1OCC(=O)Nc1sc2c(c1C#N)CC(C)(C)NC2(C)C | inconclusive: 10%
O=C(COc1ccccc1)N1c2ccccc2Sc2ccccc21 | inconclusive: 13%
CN(C)c1ccc(-c2ncnn2-c2ccccc2)cc1 | inconclusive: 14%
O=C1CCC2(CCN1)CCN(c1ncnc3[nH]ccc13)CC2 | inconclusive: 19%
O=C(NCc1ccccc1)N[C@H]1CO[C@H]2[C@@H]1OC[C@@H]2n1nnnc1-c1ccccc1 | inconclusive: 25%
CCC(C(=O)NCc1csc(C)n1)N1Cc2ccccc2C1=O (centres undefined) | inconclusive: 19%
NC(=O)[C@H](CC1CCCCC1)NC(=O)[C@H]1CNCCN1C(=O)C1CCNCC1 | inactive
CCN(CC)S(=O)(=O)c1ccc(C(=O)N2CCN=C2SCc2cccc(Cl)c2)cc1 | inconclusive: 11%
O=c1[nH]c2ccccc2c2ccccc12 | inconclusive: 20%
O=C(Nc1ccccc1-c1ccc2ncccc2c1)C1CC1 | inactive
CCOc1ccc2nc(NC(=O)Cc3ccc(OC)cc3)sc2c1 | inconclusive: 20%
CCc1ncc(C(=O)N2CCCC(COc3ccccc3C)C2)cn1 (centres undefined) | inconclusive: 15%
Cc1cc2cc(C(=O)N(C)CC3CCCN(CCc4ccc(F)cc4)C3)ccc2o1 (centres undefined) | inconclusive: 20%
COc1cc(C2SCC(=O)N2c2c(C)n(C)n(-c3ccccc3)c2=O)ccc1O (centres undefined) | inconclusive: 12%
O=C(NCc1scnc1-c1ccccc1)C1CCC(=O)N(Cc2ccccn2)C1 (centres undefined) | inactive
CCN(CC)CC#CC(O)(c1ccccc1)c1ccccc1 | inconclusive: 14%
COc1ccccc1-c1nc2ccc(Br)cc2c(=O)o1 | inactive
N#Cc1ccc(/C=C2\NC(=O)N(Cc3ccc(Cl)cc3)C2=O)cc1 | active: 30%
CCCOC(=O)C1=C(C)NC2=C(C(=O)C(C(=O)OC)C(C)C2)C1c1ccccc1OC(C)C (centres undefined) | inactive
Cc1ccc(-n2nc3c(c2NC(=O)c2cccc(C(F)(F)F)c2)CS(=O)C3)cc1 (centres undefined) | inactive
O=C(COc1cc(=O)n2c(n1)SCCC2)c1ccccc1 | active: 64%
CC(C)(CC(=O)O)CC(=O)N1CC[C@H]2NC(=O)N(c3ccc(F)cc3)C(=O)[C@H]21 | inactive
O=C(N[C@@H]1CNC[C@H]1O)c1cc(COc2cccc(C(F)(F)F)c2)[nH]n1 | inconclusive: 17%

SMILES | inhibition
Cc1cc(C)cc(N=Cc2cc(Br)ccc2O)c1 | inconclusive: 20%
Cc1cc(C)nc(SCC(=O)Nc2ncc([N+](=O)[O-])s2)n1 | inconclusive: 20%
CCc1nnc(NC(=O)C2CCCCC2)s1 | inconclusive: 22%
COc1ccc(OC2CCN(C(C)=O)CC2)c(C(=O)NCc2cccs2)c1 | inconclusive: 17%
COC(=O)c1ccc(Cl)cc1NC(=O)N1CCN(Cc2nc3cccnc3n2-c2cc(C)cc(C)c2)CC1 | inactive
O=C(c1sccc1S(=O)(=O)N1CCCC1)N1CCCC(c2ccn[nH]2)C1 (centres undefined) | inconclusive: 18%
COc1ccc(C)cc1NC(=O)C(NS(=O)(=O)c1cccs1)C(C)C (centres undefined) | inconclusive: 11%
CCN(CC)CCNC(=O)c1cc(=O)[nH]c2ccc(S(=O)(=O)N3CCCCCC3)cc12 | inactive
COc1ccc(C(=O)N2C[C@@H]3C[C@H](C2)c2ccc(NS(=O)(=O)c4ccccc4)c(=O)n2C3)cc1 | inconclusive: 10%
COc1cc(CN2CCN(Cc3ccc([N+](=O)[O-])cc3)CC2)cc(OC)c1 | inconclusive: 19%
Cc1ccc(S(=O)(=O)N2C=Cc3ccccc3C2C#N)cc1 (centres undefined) | inconclusive: 15%
CCc1nc(SCC(=O)N2CCCN(C(=O)C3CCCO3)CC2)n[nH]1 (centres undefined) | inconclusive: 13%
OCCOCCn1cnc(-c2ccccc2)c1-c1ccc(O)c(Cl)c1 | inconclusive: 13%
CN1CCCC2(CC1)CCN(C(=O)CN1CCOC1=O)CC2 | inactive
O=C(O)C1CC1c1ccc(Br)cc1 (centres undefined) | inconclusive: 28%
COc1ccc(CCN2CC(NCc3ccc4c(c3)CCO4)CC2=O)cc1 (centres undefined) | inactive
[N-]=C=C1C(=O)N(CCc2ccccc2)C(=O)C([n+]2ccccc2)C1c1ccc([N+](=O)[O-])cc1 (centres undefined) | active: 42%
O=C(Nc1ccc2c(c1)OCO2)c1cc2nc(-c3ccco3)cc(C(F)(F)Cl)n2n1 | inconclusive: 25%
Cc1nc2cc(NCc3ccc(Br)cc3)ccc2n1C | inconclusive: 11%
CC(=O)Nc1ccc(N=Cc2nc(-c3ccc(Cl)cc3)oc2O)cc1 | active: 33%
OC(CCN1CCCCC1)(c1ccccc1)C1CC2C=CC1C2 (centres undefined) | inconclusive: 16%
Cc1cc(NC(=O)CCCn2nc(C)c([N+](=O)[O-])c2C)n(-c2ccccc2)n1 | inconclusive: 10%
COC(=O)C1=C(N)OC2=C(C(=O)CC(c3ccccc3)C2)C1c1ccc2c(c1)OCO2 (centres undefined) | inactive
CCN(CC)CC#CCOC(=O)C(O)(c1ccccc1)C1CCCCC1 (centres undefined) | inconclusive: 21%

Part of the list above in another layout.
SMILES	inhibition
O=c1[nH]c2ccccc2c2ccccc12	inconclusive: 20%
O=C(Nc1ccccc1-c1ccc2ncccc2c1)C1CC1	inactive
CCOc1ccc2nc(NC(=O)Cc3ccc(OC)cc3)sc2c1	inconclusive: 20%

The list continues:

SMILES | inhibition
Cc1ccc(NC(=O)c2ccccc2C)cc1OCc1cc(=O)n2cccc(C)c2n1 | active: 33%
CC1=C[C@@H](CN2CCC(CO)CC2)[C@H](C(C)C)C[C@H]1Cc1nnc(-c2ccc([N+](=O)[O-])cc2)o1 | inconclusive: 15%
CCOC(=O)N1CCC(N2CC(=O)N3CC[C@@H](O)C[C@H]3C2=O)CC1 | inconclusive: 18%
O=C(NC1CCCCCCC1)c1cccn2c(=O)c3c4c(sc3nc12)CCCC4 | inconclusive: 12%
Cc1ccc(-c2n[nH]c(Cc3ccccc3)n2)cc1NC(=O)C1CCCO1 (centres undefined) | inactive
O=C(O)CCC(=O)N[C@H]1CO[C@H]2[C@@H]1OC[C@@H]2Nc1nccc(-c2ccc(-c3ccccc3)cc2)n1 | inactive
Cc1ncc2c(c1CNC(=O)Cc1ccsc1)CCN(C(=O)C(c1ccccc1)c1ccccc1)C2 | inactive
Cc1c(NCc2cc(Br)ccc2O)c(=O)n(-c2ccccc2)n1C | inactive
CN(C(=O)Cc1c(C(=O)O)[nH]c2ccc(Cl)cc12)c1cccc(Cl)c1 | inactive
Cc1ccc(C2CC(c3ccccc3Cl)n3nc(N)nc3N2)cc1 (centres undefined) | inconclusive: 12%
Cc1ncccc1C(=O)N1CCC(Cc2ccccc2Cl)(C(=O)O)CC1 | inactive
O=C(CCn1nnc2ccccc21)N1[C@H]2CCNC[C@@H]1CC2 | inconclusive: 18%
CO[C@@H](C(=O)N1CC(c2cccnc2)C1)c1ccccc1 | inconclusive: 14%
CN(C)CCCNC(=O)c1cc(-c2ccc(Cl)s2)nc2ccccc12 | inconclusive: 16%
Cc1ccnc(NS(=O)(=O)c2ccc(NC(=O)CSc3nc4ccccc4[nH]3)cc2)n1 | inactive
N=C(N)c1ccccc1 | inconclusive: 14%
COC(=O)[C@@H]1CCCN1C(=O)Cc1ccc(N2CCC(NC3Cc4ccccc4C3)CC2)cc1 | inconclusive: 21%
O=C1C2CCCN2C(c2ccc(F)cc2)N1c1nccs1 (centres undefined) | inconclusive: 10%
COc1cc(OC)cc(-n2c(=O)c3sccc3n(CC(=O)NCC3CCCO3)c2=O)c1 (centres undefined) | inconclusive: 12%
O=C(NCCNCC(O)COc1ccc(O)cc1)N1CCOCC1 (centres undefined) | inconclusive: 13%
CCCOc1ccc(/C=c2\sc3ncnn3c2=O)cc1 | inconclusive: 21%
O=C(c1cc(F)c(F)cc1Cl)N1CCN(c2ccc(F)cc2[N+](=O)[O-])CC1 | inconclusive: 12%
Cc1ccc(C(=O)Nc2nc3ccc4sc(C)nc4c3s2)cc1 | active: 42%
Cn1c(NC(=O)c2ccc(Cl)cc2)nc2ccccc21 | inactive

SMILES | inhibition
NCCc1nc(N(Cc2ccccn2)CC2CCCO2)c2ccccc2n1 (centres undefined) | inconclusive: 12%
Cc1ccc(NC(=O)c2ccc([N+](=O)[O-])cc2Cl)cc1Cl | inconclusive: 13%
CCOc1ccccc1/C=C1\N=C(c2ccc(Cl)cc2)OC1=O | inactive
CC(C)c1ccc(CN2CCSCC2)cc1 | inconclusive: 21%
Cc1ccc2c(c1)N(CC(=O)N1CCN(C)CC1)C(=O)CO2 | inactive
Cc1ccc(Nc2cc(C)nc(Nc3ccc(NC(=O)c4ccc(Cl)cc4)cc3)n2)cc1 | inconclusive: 13%
COC(=O)CNc1c(-c2ccccc2)nc2ccc(Br)cn12 | inconclusive: 12%
CCOC(=O)C(C)(C)Sc1nc2c(c(=O)n1-c1ccc(Cl)cc1)SCC2 | inactive
CCOc1ccc(N2CC(NC(=O)C(=O)c3c[nH]c4ccccc34)CC2=O)cc1 (centres undefined) | inconclusive: 16%
COc1ccccc1/C=C1\C(=O)N(c2cccc(Cl)c2)N=C1C | inconclusive: 12%
COc1ccccc1N1CCN(Cc2cc([N+](=O)[O-])c(O)c3ncccc23)CC1 | active: 34%
O=[N+]([O-])c1cccc(C2SCCN2S(=O)(=O)c2ccc(F)cc2)c1 (centres undefined) | inactive
COc1ccc(CCC(=O)Nc2ccc(N(C)C)cc2)cc1 | active: 46%
CCCc1cnc(C)nc1N1CCCN(S(C)(=O)=O)CC1 | inconclusive: 14%
CC1=C(C(=O)Nc2cccc(C)n2)C(c2ccc(Cl)cc2)C2=C(CC(C)(C)CC2=O)N1 (centres undefined) | inconclusive: 13%
Cc1c(C(=O)NC(C)(C)CN2CCOCC2)sc2ncn(C)c(=O)c12 | inactive
CSc1nc(C2CC2)cc(-c2ccco2)c1C#N | inactive
CC(C)=CCc1cc(-c2coc3cc(O)ccc3c2=O)ccc1O | inactive
O=C(c1ccc2c(Cl)c3c(nc2c1)CCCC3)N1CCN(c2ncccn2)CC1 | inactive
Cc1nn(-c2ccc(C(C)C)cc2)c(C)c1[C@@H]1C=C[C@@H](NC(=O)COCC(=O)O)C1 | inconclusive: 12%
Oc1ccc(Br)c(C(Nc2ccccn2)c2ccc3cccnc3c2O)c1 (centres undefined) | inconclusive: 13%
C=CCn1c(CCCNC(=O)COc2ccccc2)nc2ccccc21 | inactive
